Among all 1,200 compounds or so, fewer than 10 were called active. Calls come from the whole dose curve; as a rule, active = well fitted curve in the direction sought with a large enough effect; inconclusive = small, poorly fitted or top-dose-only effect, or another doubt; inactive = no such curve, though single readings can be large or run the other way. Some of the results follow.

In PubChem BioAssay AID1347431 (National Center for Advancing Translational Sciences (NCATS), 2020) one finds activity change, negative = inhibition data, which are given here for 40 compounds.

The assay in a line: Confirmatory qHTS assay for inhibitors of Activation Induced Cytidine Deaminase (AID): UDG signals. Note: 0% is about no effect. To be noted: UDG coupled enzyme activity counter-screen; at 115 µM (top of the series) unless noted. From the text: Assay Provider (PI) Patricia Gearhart Ph.D.
National Institute on Aging
National Institute of Health (NIH), Bethesda, MD
Assay Provider (PI) Rahul Kohli Ph.D.
Perelman School of Medicine
University of Pennsylvania, Philadelphia, PA
Activation-Induced Deaminase (AID) is a cytosine deaminase which converts cytosine into uracil within stretches of ssDNA. The presence of uracil in DNA initiates a cascade of mutagenic DNA repair to introduce point mutations and DNA double strand breaks. Specific targeting of AID to the immunoglobulin heavy chain loci (Igh) promotes mutagenesis in the antibody variable region for somatic hypermutation (SHM) or switch regions leading to class switch recombination (CSR). However, AID also plays a role in accumulating unnecessary mutations across the genome. Mis-targeting of AID results in the initiation of tumor development and leads to greater drug resistance among cancer cells when continually expressed. To identify an AID inhibitor, a small molecule library will be screened in collaboration with NCATS core facility at NIH. To confirm biological function, inhibitors will be examined in an in vitro murine B-cell activation assay and subsequent secondary validation screens. Top molecules will be further screened to identify inhibitory efficacy against a wild type primary splenocytes assay. Using these approaches, we hope to identify a small molecule with great efficacy and low toxicity for use as a molecular probe to further characterize AID's intricacies, or even as a therapeutic.
A FRET based analysis of cytosine deamination, was developed to identify potential inhibitors of AID catalytic activity. This screen has two signal output, Read 1 evaluates the AID inhibition response. The second readout (Read 2) evaluates UDG response and is uses as a counterscreen to exclude false positive inhibitors. Inhibition in AID and inactivity in the UDG signal is the desired outcome for this assay.
SEQUENCE No. (e.g., 1, 2, 3, etc.); […] (e.g., Cells, Incubation, Reagent, etc.); VALUE; DESCRIPTION
1a; Reagent; 3 uL; [4/3x] 1 uM AID/2.67 U/mL UDG
1b; Reagent; 3 uL; 2 U/mL UDG
1c; Reagent; 3 uL; 1 uM AID
2a; Compound; 46 nL; Follow-up plates (0.64 uM - 10 mM)
2b; Control; 46 nL; ATA ([…] - 10 mM)
3; Time; 10 min; incubation at room temperature
5; Time; 4 hr; incubation at room temperature
6; Reagent; 4 uL; [2x] 250 mM NaOH
7; Time; 15 sec; centrifuge at 1000 rpm
8; Time; 30 min; incubation at room temperature
9a; Detection; fluorescence (Read 1: AID); EnVision (PerkinElmer) plate reader, 540 excitation and 590 emission filters
9b; Detection; fluorescence (Read 2: UDG); EnVision (PerkinElmer) plate reader, 560 excitation and 665 emission filters
NOTES (numbers refer to sequence above)
1a; Reagents were dispensed in a medium-binding black solid-bottom Greiner plates (789176F) using a BioRptr liquid dispenser. Dispense 3 uL of [4/3x] 1 uM AID (provided by Kohli lab) and [4/3x] 2 U/mL UDG (NEB M0280L) into columns 1, 2, 5 to 48.
1b; Dispense 3 uL of [4/3x] 2 U/mL UDG into column 3.
1c; Dispense 3 uL of [4/3x] 1 uM AID into column 4.
2a; Compound (7-points [uM]: 0.64; 3.2; 16; 80; 400; 2,000; 10,000; […]) double pin-transferred (Dip Factor = 2) using the Kalypsys (Wako USA) pintool equipped with a 1536 pinhead for a final concentration range of 7.32 nM - 114 uM.
2b; 10 mM Aurintricarboxylic Acid (Sigma A1895) (ATA, 8-point, n = 2, 1:2.5 dilution in column 2) double pin-transferred (Dip Factor = 2) using the Kalypsys (Wako USA) pintool equipped with a 1536 pinhead for a [final] range of 186 nM - 114 uM.
3; Room temperature incubation.
4; Dispense 1 uL of substrate mixture from the Kohli lab [4x] […] DJC20 and [4x] 250 nM DJC23 into columns 1 to 48 .
5; Room temperature incubation.
6; Dispense 4 uL of substrate mixture [2x] 250 mM NaOH into columns 1 to 48.
7; Centrifugation step to remove bubbles.
8; Room temperature incubation
9a; Fluorescence signal (column label AID) was read using the EnVision plate reader. […]
As for `COc1ccc(-c2csc3nc(-c4ccc(C)cc4)oc(=O)c23)cc1OC`, the activity change, negative = inhibition was inactive: -0.182%.
For `CCOC(=O)c1ccc(NC(=O)CSc2ncc(S(=O)(=O)c3ccc(C)c(Cl)c3)c(=O)[nH]2)cc1` the value was inactive: -1.48%; for `CCOc1ccc(NC(=O)[C@@H](c2ccccc2)N2Cc3ccccc3C2=O)cc1`, inactive: -0.603%; for `COc1cccc(N2CCN(C(=O)c3ccc4c(Cl)c5c(nc4c3)CCCC5)CC2)c1`, inactive: -4.95%.
The figure for `Cc1cc2c(cc3c(SCc4cccc(Cl)c4)nnc(C)n32)o1` is inactive: -1.12%; for `COc1ccc(C(=O)N(Cc2ccco2)Cc2ccccc2F)cc1Cl` it is inactive: -5.67%; for `O=S(=O)(NCCc1nnc2ccc(SCc3cccc(Cl)c3)nn12)c1ccccc1` it is inactive: 3.29%.
The figure for `COc1ccc(Nc2ncc(C(=O)Nc3cccc(OC)c3)c3ccccc23)cc1` is inactive: -10.9%; for `Cc1ccc(Cl)cc1N(C)C(=O)c1sc2nc3n(c(=O)c2c1C)CCCC3` it is inactive: -5.4%; for `CC1=C(C(=O)NCc2cccc(Cl)c2)C2(CCCCCC2)OC1=O` it is inactive: -1.36%.
As for `Cc1ccc2c(c1)-c1ncc(C(=O)c3cc(Br)ccc3O)cc1CO2`, the activity change, negative = inhibition is inactive: -6.67%.
As to `Cc1cc(C)cc(Nc2cc(C)nc3nc(-c4ccco4)nn23)c1`, the activity change, negative = inhibition is inactive: 12.5%.
For `O=C(Nc1ccc(F)cc1F)N1CCN(c2ccc(Cl)c(Cl)c2)CC1` the value was inactive: -6.01%.
On to `CCCCOc1cccc(C(=O)Nc2cccc3ccc(C)nc23)c1`, for which the activity change, negative = inhibition was inactive: -5.04%.
The figure for `COc1cc(OC)cc(C(=O)Nc2ccc3nc(N4CCC(C)CC4)cc(C)c3c2)c1` is inactive: -9.5%.
For `Cc1ccc(C)c(N2CCN(C(=O)c3ccc4c(Cl)c5c(nc4c3)CCCC5)CC2)c1` the value was inactive: -5.68%; for `COc1ccc(C)cc1N(C)C(=O)c1sc2nc3n(c(=O)c2c1C)CCCCC3`, inactive: 1.37%.
Take `COc1ccccc1-c1nn(CCC(=O)Nc2ccc(C)cc2)c2nc(C)cc(C)c12`: the activity change, negative = inhibition is inactive: -6.55%.
On to `COc1ccc(OCc2nc3ccccc3n2Cc2ccc(C(C)(C)C)cc2)cc1`, for which the activity change, negative = inhibition was inactive: -5.44%.
On to `Cc1ccc(C)c(N2CCN(CCCNC(=O)c3cnn(-c4cccc(Cl)c4)c3C3CCN(C(=O)OC(C)(C)C)CC3)CC2)c1`, for which the activity change, negative = inhibition was inactive: -6.96%.
For `Cc1ccc(-n2ncc(C(=O)NCCN3CCC(Cc4ccccc4)CC3)c2C2CCN(C(=O)OC(C)(C)C)CC2)cc1` the value was inactive: -9.39%; for `COc1cc2c(cc1OC)C(COc1cc(C)cc(C)c1)N(C(=O)C(C)(C)C)CC2` (stereo not given), inactive: 6.45%; for `CCN(CC)CCCNC(=O)c1ccc2c(c1)sc1nc(-c3ccc(C)cc3)cn12`, inactive: -8.96%.
The figure for `COc1ccc(Br)cc1CNC(=O)c1cc2n(n1)CCCN(Cc1ccc(C)cc1)C2=O` is inactive: -0.912%; for `CCC(C(=O)Nc1cc(OC)cc(OC)c1)n1nc(-c2ccc(C)c(C)c2)ccc1=O` (stereo not given) it is inactive: -17.8%.
For `Cc1ccc(C)c(N2CCN(C(=O)c3ccc(CS(=O)(=O)c4ccc(Br)cc4)o3)CC2)c1` the value was inactive: -4.98%; for `CCC(Sc1nncn2c1cc1occc12)C(=O)Nc1ccc(C)c(Cl)c1` (stereo not given), inactive: 0.215%.
For `CCCCN(Cc1ccccc1)C(=O)CN(C)S(=O)(=O)c1ccc2c(c1)c(=O)n(C)c(=O)n2C`, the activity change, negative = inhibition is inactive: 11.1%.
On to `Cc1ccc(NC(=O)C2CCCN(S(=O)(=O)c3cccc4cccnc34)C2)cc1Cl` (stereo not given), for which the activity change, negative = inhibition is inactive: -24.8%.
For `O=C(c1ccc2c(c1)OCO2)c1cn(Cc2ccc(F)cc2)c2ccccc2c1=O` the value was inactive: -2.46%.
The figure for `Cc1ccc(-c2noc(CN(C(=O)COc3cc(C)cc(C)c3C)C(C)C)n2)cc1` is inactive: 0.248%.
The figure for `O=C(C1CCC(Cn2c(=O)c3sccc3n(Cc3ccccc3F)c2=O)CC1)N1CCCCC1` (stereo not given) is inactive: -5.65%; for `CCOc1ccccc1CNC(=O)c1cccn1-c1nnc(N2CCCCC2)s1` it is inactive: -6.77%.
As for `C=Cc1ccc(CSc2nc(-c3ccc(C)cc3)nc3c2Cc2c(CO)cnc(C)c2O3)cc1`, the activity change, negative = inhibition was inactive: -10.6%.
The figure for `COc1cc2ccccc2cc1C(=O)N1CCN(c2nc3ccc(F)cc3s2)CC1` is inactive: -5.87%; for `Cc1ccc(CN(Cc2ccco2)C(=O)COc2ccc(Cl)cc2)o1` it is inactive: -5.99%; for `O=C(c1ccc2c(Cl)c3c(nc2c1)CCCC3)N1CCN(c2ccccc2F)CC1` it is inactive: -10.6%.
The figure for `Cc1ccc(Cn2cc(S(=O)(=O)c3ccc(C)cc3)c(=O)c3cc(F)c(N4CCCC4)cc32)cc1` is inactive: -6.85%; for `COc1ccccc1N1CCN(C(=O)c2cc3ccc4ccc(C)[nH]c4c3n2)CC1` it is inactive: -15%; for `CC(=O)N1CCCc2cc(S(=O)(=O)N3CCCC(C(=O)N4CCN(c5cc(C)ccc5C)CC4)C3)ccc21` (stereo not given) it is inactive: -11.8%.
